# Test results as given in the supplement of paper PMC8728848.
# The list shows a part of the results.
# B1: Pwp1 (Candida glabrata) (protein)
# chain: MGSSHHHHHHSSGLVPRGSHMASANPISITNVCQFPDNWARTAGFQATTVRLGLTIASNTYKELLNYPGLFNFATQKATVTQPNFSISGFPFFTGLYGLTVWPINLLVELQGYFVPPESGNYTFTLQGSDDAAILFFANPSTFACGSQNDWPQPREADITVTDTLVPSRTLYLVKGVAYPIRIAYYNGSGDGKLNVSFKDPSGTTHTDWKGYVWQYSNTCSTCTYT
# Experiments:
# Experiment in all cases: glycan array binding signal (z-score within array); higher = stronger binding
# Details in all cases: glycan notation: IUPAC condensed, linker removed
# Gal6S(b1-4)Glc6S = molecular target: Gal6S(b1-4)Glc6S
# Method in brief: (§1)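 Glycan array data came from 3228 arrays in the Consortium for Functional Glycomics database, and only arrays with an available protein sequence were kept. Glycan names were put into IUPAC-condensed notation, and columns mapping to the same glycan were averaged. The binding signal is a within-array Z-score, averaged across arrays of one protein sequence run at different concentrations or buffers and across linkers. A negative Z-score can be read as non-binding.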
# Gal6S(b1-4)GlcNAc = molecular target: Gal6S(b1-4)GlcNAc
# Method in brief: as §1
# Gal6S(b1-4)GlcNAc6S = molecular target: Gal6S(b1-4)GlcNAc6S
# Method in brief: as §1
# GalNAc(a1-3)Gal = molecular target: GalNAc(a1-3)Gal
# Method in brief: as §1
# GalNAc(a1-3)GalNAc = molecular target: GalNAc(a1-3)GalNAc
# Method in brief: as §1
# [1] = molecular target: GalNAc(a1-3)GalNAc(b1-3)Gal(a1-4)Gal(b1-4)Glc
# Method in brief: as §1
# [2] = molecular target: GalNAc(a1-3)GalNAc(b1-3)Gal(a1-4)Gal(b1-4)GlcNAc
# Method in brief: as §1
# GalNAc(b1-3)Gal = molecular target: GalNAc(b1-3)Gal
# Method in brief: as §1
# [3] = molecular target: GalNAc(b1-3)Gal(a1-4)Gal(b1-4)GlcNAc
# Method in brief: as §1
# [4] = molecular target: GalNAc(b1-3)Gal(a1-4)Gal(b1-4)GlcNAc(b1-3)Gal(b1-4)Glc
# Method in brief: as §1
# [5] = molecular target: GalNAc(b1-3)Gal(a1-6)Gal(b1-4)Glc
# Method in brief: as §1
# GalNAc(b1-3)GalNAc = molecular target: GalNAc(b1-3)GalNAc
# Method in brief: as §1
# GalNAc(b1-3)GlcNAc = molecular target: GalNAc(b1-3)GlcNAc
# Method in brief: as §1
# GalNAc(b1-4)Gal(b1-4)Glc = molecular target: GalNAc(b1-4)Gal(b1-4)Glc
# Method in brief: as §1
# GalNAc(b1-4)GlcNAc = molecular target: GalNAc(b1-4)GlcNAc
# Method in brief: as §1
# [6] = molecular target: GalNAc(b1-4)GlcNAc(b1-2)Man
# Method in brief: as §1
# [7] = molecular target: GalNAc(b1-4)GlcNAc(b1-2)Man(a1-3)[GalNAc(b1-4)GlcNAc(b1-2)Man(a1-6)]Man(b1-4)GlcNAc(b1-4)GlcNAc
# Method in brief: as §1
# [8] = molecular target: GalNAc(b1-4)GlcNAc(b1-3)GalNAc(b1-4)GlcNAc
# Method in brief: as §1
# GalNAc(b1-4)GlcNAc6S = molecular target: GalNAc(b1-4)GlcNAc6S
# Method in brief: as §1
# GalNAc(b1-6)GalNAc = molecular target: GalNAc(b1-6)GalNAc
# Method in brief: as §1
# GalNAc3S(b1-4)GlcNAc = molecular target: GalNAc3S(b1-4)GlcNAc
# Method in brief: as §1
# GalNAc3S(b1-4)GlcNAc3S = molecular target: GalNAc3S(b1-4)GlcNAc3S
# Method in brief: as §1
# [9] = molecular target: GalNAc3S(b1-4)[Fuc(a1-3)]GlcNAc
# Method in brief: as §1
# GalNAc4S6S(b1-4)GlcNAc = molecular target: GalNAc4S6S(b1-4)GlcNAc
# Method in brief: as §1
# GalNAc6S(b1-4)GlcNAc = molecular target: GalNAc6S(b1-4)GlcNAc
# Method in brief: as §1
# Glc(a1-4)Glc = molecular target: Glc(a1-4)Glc
# Method in brief: as §1
# [10] = molecular target: Glc(a1-4)Glc(a1-4)Glc(a1-4)Glc
# Method in brief: as §1
# Glc(a1-6)Glc(a1-6)Glc = molecular target: Glc(a1-6)Glc(a1-6)Glc
# Method in brief: as §1
# [11] = molecular target: Glc(a1-6)Glc(a1-6)Glc(a1-6)Glc
# Method in brief: as §1
# Glc(b1-4)Glc = molecular target: Glc(b1-4)Glc
# Method in brief: as §1
# Glc(b1-6)Glc = molecular target: Glc(b1-6)Glc
# Method in brief: as §1
# GlcA(b1-3)Gal = molecular target: GlcA(b1-3)Gal
# Method in brief: as §1
# GlcA(b1-3)GlcNAc = molecular target: GlcA(b1-3)GlcNAc
# Method in brief: as §1
# GlcA(b1-6)Gal = molecular target: GlcA(b1-6)Gal
# Method in brief: as §1
# [12] = molecular target: GlcA3S(b1-3)Gal(b1-4)GlcNAc(b1-2)Man
# Method in brief: as §1
# [13] = molecular target: GlcA3S(b1-3)Gal(b1-4)GlcNAc(b1-3)Gal(b1-4)Glc
# Method in brief: as §1
# [14] = molecular target: GlcNAc(a1-3)Gal(b1-4)GlcNAc
# Method in brief: as §1
# [15] = molecular target: GlcNAc(a1-4)Gal(b1-3)GlcNAc
# Method in brief: as §1
# [16] = molecular target: GlcNAc(a1-4)Gal(b1-4)GalNAc
# Method in brief: as §1
# [17] = molecular target: GlcNAc(a1-4)Gal(b1-4)GlcNAc
# Method in brief: as §1
# [18] = molecular target: GlcNAc(a1-4)Gal(b1-4)GlcNAc(b1-3)Gal(b1-4)Glc
# Method in brief: as §1
# [19] = molecular target: GlcNAc(a1-4)Gal(b1-4)GlcNAc(b1-3)Gal(b1-4)GlcNAc
# Method in brief: as §1
# [20] = molecular target: GlcNAc(a1-4)Gal(b1-4)GlcNAc(b1-3)Gal(b1-4)GlcNAc(b1-3)Gal(b1-4)GlcNAc
# Method in brief: as §1
# [21] = molecular target: GlcNAc(a1-4)Gal(b1-4)GlcNAc(b1-3)Gal(b1-4)[Fuc(a1-3)]GlcNAc(b1-3)Gal(b1-4)[Fuc(a1-3)]GlcNAc
# Method in brief: as §1
# [22] = molecular target: GlcNAc(a1-6)Gal(b1-4)GlcNAc
# Method in brief: as §1
binder,measurement,setting,value
B1,glycan array binding signal (z-score),Gal6S(b1-4)Glc6S,1.28
same,glycan array binding signal (z-score),Gal6S(b1-4)GlcNAc,-0.434
same,glycan array binding signal (z-score),Gal6S(b1-4)GlcNAc6S,-0.888
same,glycan array binding signal (z-score),GalNAc(a1-3)Gal,1.19
same,glycan array binding signal (z-score),GalNAc(a1-3)GalNAc,-0.072
same,glycan array binding signal (z-score),[1],0.022
same,glycan array binding signal (z-score),[2],-0.037
same,glycan array binding signal (z-score),GalNAc(b1-3)Gal,0.709
same,glycan array binding signal (z-score),[3],1.43
same,glycan array binding signal (z-score),[4],1.77
same,glycan array binding signal (z-score),[5],1.15
same,glycan array binding signal (z-score),GalNAc(b1-3)GalNAc,-0.85
same,glycan array binding signal (z-score),GalNAc(b1-3)GlcNAc,0.541
same,glycan array binding signal (z-score),GalNAc(b1-4)Gal(b1-4)Glc,0.092
same,glycan array binding signal (z-score),GalNAc(b1-4)GlcNAc,1.03
same,glycan array binding signal (z-score),[6],-0.855
same,glycan array binding signal (z-score),[7],0.543
same,glycan array binding signal (z-score),[8],1.1
same,glycan array binding signal (z-score),GalNAc(b1-4)GlcNAc6S,1.38
same,glycan array binding signal (z-score),GalNAc(b1-6)GalNAc,-0.226
same,glycan array binding signal (z-score),GalNAc3S(b1-4)GlcNAc,-1.06
same,glycan array binding signal (z-score),GalNAc3S(b1-4)GlcNAc3S,0.192
same,glycan array binding signal (z-score),[9],-0.41
same,glycan array binding signal (z-score),GalNAc4S6S(b1-4)GlcNAc,0.907
same,glycan array binding signal (z-score),GalNAc6S(b1-4)GlcNAc,0.324
same,glycan array binding signal (z-score),Glc(a1-4)Glc,-0.151
same,glycan array binding signal (z-score),[10],0.015
same,glycan array binding signal (z-score),Glc(a1-6)Glc(a1-6)Glc,1.17
same,glycan array binding signal (z-score),[11],-1.11
same,glycan array binding signal (z-score),Glc(b1-4)Glc,0.697
same,glycan array binding signal (z-score),Glc(b1-6)Glc,0.88
same,glycan array binding signal (z-score),GlcA(b1-3)Gal,0.22
same,glycan array binding signal (z-score),GlcA(b1-3)GlcNAc,-1.31
same,glycan array binding signal (z-score),GlcA(b1-6)Gal,-0.201
same,glycan array binding signal (z-score),[12],0.682
same,glycan array binding signal (z-score),[13],-0.393
same,glycan array binding signal (z-score),[14],0.126
same,glycan array binding signal (z-score),[15],-0.206
same,glycan array binding signal (z-score),[16],-1.74
same,glycan array binding signal (z-score),[17],0.326
same,glycan array binding signal (z-score),[18],1.72
same,glycan array binding signal (z-score),[19],-0.537
same,glycan array binding signal (z-score),[20],0.377
same,glycan array binding signal (z-score),[21],1.32
same,glycan array binding signal (z-score),[22],0.058

# 2 records drawn at random from those above:
binder,measurement,setting,value
B1,glycan array binding signal (z-score),GalNAc3S(b1-4)GlcNAc3S,0.192
same,glycan array binding signal (z-score),[1],0.022
